Binding data for one molecule are collected here from patent publication US7118886 (HSC RESEARCH AND DEVELOPMENT LIMITED PARTNERSHIP, dated 2006).

Test [1] addresses T1, Full length mouse Eps15 expressed from pcDNA3Eps15 (mouse) (UniProt P42567).
T1 sequence (looked up): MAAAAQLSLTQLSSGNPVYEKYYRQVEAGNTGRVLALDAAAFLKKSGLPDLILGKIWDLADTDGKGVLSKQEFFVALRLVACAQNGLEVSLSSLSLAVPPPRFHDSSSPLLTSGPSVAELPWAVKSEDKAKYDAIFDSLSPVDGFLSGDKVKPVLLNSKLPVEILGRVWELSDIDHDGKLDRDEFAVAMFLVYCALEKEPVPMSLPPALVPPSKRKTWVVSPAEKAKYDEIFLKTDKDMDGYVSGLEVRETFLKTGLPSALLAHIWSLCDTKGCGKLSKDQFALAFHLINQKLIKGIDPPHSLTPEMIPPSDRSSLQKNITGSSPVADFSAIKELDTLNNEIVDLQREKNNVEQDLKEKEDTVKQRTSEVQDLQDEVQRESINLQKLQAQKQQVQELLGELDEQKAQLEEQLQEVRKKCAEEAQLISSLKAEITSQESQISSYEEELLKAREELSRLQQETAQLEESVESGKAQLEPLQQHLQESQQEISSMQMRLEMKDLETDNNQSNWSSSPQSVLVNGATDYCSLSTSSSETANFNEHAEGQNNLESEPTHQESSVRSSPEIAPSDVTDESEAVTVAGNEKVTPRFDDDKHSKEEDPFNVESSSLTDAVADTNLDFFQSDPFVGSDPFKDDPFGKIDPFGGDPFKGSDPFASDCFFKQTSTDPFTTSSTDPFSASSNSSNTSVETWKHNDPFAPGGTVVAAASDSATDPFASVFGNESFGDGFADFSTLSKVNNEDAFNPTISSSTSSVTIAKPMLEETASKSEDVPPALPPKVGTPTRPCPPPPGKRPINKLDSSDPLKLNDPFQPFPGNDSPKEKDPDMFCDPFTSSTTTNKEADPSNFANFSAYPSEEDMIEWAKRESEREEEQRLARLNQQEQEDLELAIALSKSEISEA
The test can be described thus: co-immunoprecipitation from co-transfected Cos-1 cells, western blot with chicken anti-Ese1. On the technique in general: Immunoblotting shows a protein as a band on a membrane.

Test [2] concerns the target T1, Full length mouse Eps15 expressed from pcDNA3Eps15 (mouse). The experiment in a line: co-immunoprecipitation and western blot, legend of FIG. 3B.

Results are given in words; binding and its absence hold for the method and conditions named. Binding seen in cells or lysates may run through a third protein. Some entries that bind do so weakly or less than the wild type.

B1: C-terminally truncated Ese1 (amino acids 1-736) expressed from pcDNA3Ese1δC (protein)
chain: MAQFPTPFGGSLDVWAITVEERAKHDQQFLSLKPIAGFITGDQARNFFFQSGLPQPVLAQIWALADMNNDGRMDQVEFSIAMKLIKLKLQGYQLPSTLPPVMKQQPVAISSAPAFGIGGIASMPPLTAVAPVPMGSIPVVGMSPPLVSSVPPAAVPPLANGAPPVIQPLPAFAHPAATWPKSSSFSRSGPGSQLNTKLQKAQSFDVASAPPAAEWAVPQSSRLKYRQLFNSHDKTMSGHLTGPQARTILMQSSLPQAQLASIWNLSDIDQDGKLTAEEFILAMHLIDVAMSGQPLPPVLPPEYIPPSFRRVRSGSGMSVISSSSVDQRLPEEPSSEDEQQPEKKLPVTFEDKKRENFERGSVELEKRRQALLEQQRKEQERLAQLERAEQERKERERQEQEAKRQLELEKQLEKQRELERQREEERRKEIERREAAKRELERQRQLEWERNRRQELLNQRNKEQEGTVVLKARRKTLEFELEALNDKKHQLEGKLQDIRCRLATQRQEIESTNKSRELRIAEITHLQQQLQESQQMLGRLIPEKQILSDQLKQVQQNSLHRDSLLTLKRALEAKELARQQLREQLDEVERETRSKLQEIDVFNNQLKELREIHSKQQLQKQRSLEAARLKQKEQERKSLELEKQKEDAQRRVQERDKQWLEHVQQEEQPRPRKPHEEDRLKREDSVRKKEAEERAKPEMQDKQSRLFHPHQEPAKLATQAPWSTTEKGPLTISAQE
Take B1: the binding entry in test [1] and in test [2] was “binds” throughout.
